Literature values, collected in US20250032463A1, “RAPAMYCIN-CONTAINING PHARMACEUTICAL COMPOSITION” (NOBELPHARMA CO., LTD., priority 2023, published 2025).

For `CO[C@H]1C[C@@H]2CC[C@@H](C)[C@@](O)(O2)C(=O)C(=O)N2CCCC[C@H]2C(=O)O[C@H]([C@H](C)C[C@@H]2CC[C@@H](O)[C@H](OC)C2)CC(=O)[C@H](C)/C=C(\C)[C@@H](O)[C@@H](OC)C(=O)[C@H](C)C[C@H](C)/C=C/C=C/C=C/1C` [rapamycin, Rapamycin], the solubility in water is listed as “almost insoluble”.
